Reference: PubChem BioAssay AID1347423 (Functional Genomics Laboratory (NCATS/FGL), 2020)
Screen size: about 52,000 sequences; about 210 (0.4%) were called active.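 Rule for the calls: active = gene whose silencing raises cell survival under the drug, median off-target-corrected z-score across its silencing RNAs 2 or more; inactive = the rest.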 This is one part of the list.

assay: Resistance to Poly (ADP-Ribose) Polymerase inhibitor: Gene Identification via Genome-wide siRNA Screen; conditions: mouse BRCA2 R2336H ES cells, olaparib, CellTiter-Glo viability; active compounds read high
How it was run: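 Mouse BRCA2 R2336H ES cells were reverse-transfected with siRNA (20 nM final), treated at 48 h with 500 nM olaparib, and read by CellTiter-Glo after 72 h. Scores: MAD-based z per siRNA, median per gene, seed off-target correction.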

Row | Sequence | z-score
1 | GGACCUGUUUUGGAAAUAUTT against Igj | inactive: 0.803
2 | GGUAACUUCUCAUCUCAACTT against MapKapk3 | inactive: 0.924
3 | GGGAGGGAAUAGUCAAAAATT against Timm17b | inactive: 0.913
4 | GCACAACCGAUUUUAUCACTT against BC005624 | inactive: 1.9
5 | GCACUAUACCGAAAAGCGCTT against Ppid | inactive: 0.628
6 | CCAAUUUAUACUUAGUGCCTT against 2210404G23Rik | inactive: -0.0819
7 | GGAUCUCAUGUUGAUAUAATT against Rpp40 | inactive: -1.39
8 | CGAAUACAUUAAGGAGAACTT against Relb | inactive: 1.62
9 | GAUUCUUUGUAGGGAGAUATT against Olfr26 | inactive: -0.295
10 | GGAAAUAUAUCCCGGACAGTT against Sirt1 | inactive: -0.842
11 | GCUUGUAGUUAAGGUGCACTT against Apbb1ip | inactive: 0.00446
12 | GGACAAAAUCCUGCACAUUTT against Dnajb5 | inactive: -0.792
13 | CCACCUUUUUCUACAAAGUTT against Slc16a9 | inactive: 0.275
14 | GGUACUCGGUUAUCAUGAATT against Olfr1403 | inactive: 1.39
15 | GGGAUACCAUCUUUAUGGCTT against A230074B11Rik | inactive: 0.0205
16 | GGAAAUGUUAUCUUGGAAUTT against 2310008M20Rik | inactive: -0.752
17 | GCAAUCACAAUCAGCUCCGTT against V1rg8 | inactive: 0.713
18 | GGUAAUUUUGGCUCUUGGATT against Eif4a2 | inactive: -0.424
19 | GGUCAUUUUUGAGGUGCUGTT against Grin2d | inactive: 0.979
20 | AGUGAAGUAUCCAGGGUGUTT against Tex18 | inactive: -1.43
21 | GGAGAUCAUAUGAUUGAGATT against Plscr2 | inactive: 2.01
22 | GGAGAUGAAAUCUACAAAUTT against Igfbp1 | inactive: -0.914
23 | GCACCCUAGAGGUAAAAGATT against Taf12 | inactive: -2.38
24 | GCUGGUAGCCCGACAUAAUTT against Daam2 | inactive: -0.386
25 | CCUGUGUCAAUCCUGUGCATT against Ifitm7 | inactive: -0.932
26 | GGCCAUCAGCAAAGGAUGCTT against C130074G19Rik | inactive: 0.44

Some of the entries above in a different format.
Row	Sequence	z-score
6	CCAAUUUAUACUUAGUGCCTT against 2210404G23Rik	inactive: -0.0819
7	GGAUCUCAUGUUGAUAUAATT against Rpp40	inactive: -1.39
8	CGAAUACAUUAAGGAGAACTT against Relb	inactive: 1.62

(cont.)

Row | Sequence | z-score
27 | CGUGUUCUUAAUUUGCUUUTT against Rac1 | inactive: 0.907
28 | GGUAAUCUAUGAGACUCCATT against Gng5 | inactive: -0.318
29 | GGAUCCUGCUCAAAAAAGUTT against 6530401D17Rik | inactive: -0.321
30 | GGAACUUCAUAAACACUUGTT against Oas3 | inactive: 0.178
31 | GGUGAACGAUGUCAACUUUTT against Dvl1 | inactive: -0.0182
32 | CGCAGUGACCUCAUUAACGTT against Klf7 | inactive: 1
33 | CCCGUGAAAACAGUUGUCATT against Scly | inactive: -1.02
34 | GGAAGACGAAGAGCUGACATT against Psen1 | inactive: -0.177
35 | CCUUCUCCCAUAAGGCCAATT against Zfp1 | inactive: -0.27
36 | GGAUUUUGUGAAUAAAUGCTT against Map2k1 | inactive: 0.346
37 | GGUGAAAGGAGUCAGUCUATT against Agtrap | inactive: -1.04
38 | GGAAUUAUUCAGCAAGACUTT against 1700019I23Rik | inactive: 0.226
39 | GGAUGUCAGUAUUUCCUGGTT against Glrx1 | inactive: 1.11
40 | GGAGAUGAAAUUGUUUAUCTT against Bpgm | inactive: 0.374
41 | GGCAAAGCAAGGUUGCUGATT against Ormdl3 | inactive: -0.0727
42 | GGCCACGGAGCUCUUUGUUTT against Chrac1 | inactive: -0.456
43 | GGAAGUAUGGGAUUAUGUGTT against Scpep1 | inactive: 0.115
44 | CCAGUUCUCUCGAAGACUUTT against Hoxb1 | inactive: 0.692
45 | GGUCCACAUUUUCGGCUAGTT against Kctd11 | inactive: -0.572
46 | GGAGUGCAAAAAGAGUUGCTT against Abce1 | inactive: -0.2
47 | GCAGCAUGCUGAAGAAAGATT against Jund1 | inactive: -0.68
48 | GGGUUACAAGCUUAGCUCCTT against Pcdhga5 | inactive: -0.846
49 | GGUGUGCUGAGAAAAAAUATT against Acate3 | inactive: -0.735
50 | GGUAGACCAGCUUGCUAAUTT against Plxnb1 | inactive: 1.81
51 | GCCGAUUUUUGGGAAUAAATT against Ptpn20 | inactive: -1.38
52 | GGGAUUACUUGUAACAUCATT against Abcc2 | inactive: 1.34
